The other results are listed elsewhere or left out. These are further read-outs of the screen, such as a control signal, another cell line or another target. No call is given for them. Compounds called inactive in the main read-out are mostly missing here. Words in brackets tell the shape of the fitted curve; partial curves, single points and poor fits give uncertain potencies.
Assay: qHTS Assay for Lipid Storage Modulators in Drosophila S3 Cells;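 on cell number change: cells counted by Cell Tracker Red CMTPX staining in the red channel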
Settings: BODIPY lipid droplet fluorescence, 18-24 h; for cell number change: measured here: cell count max response, cells fed with added oleic acid
How it was run: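 Drosophila S3 cells got compounds at several concentrations plus oleic acid (400 uM solution). Laser-scanning cytometry with 488 nm excitation read lipid droplets at 500-530 nm and cells at 575-640 nm. Percent activity was relative to 20 uM Triacsin C.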

[1] = measured here: lipid fluorescence (Fed channel) AC50, cells fed with added oleic acid
[2] = measured here: cell number channel AC50, cells fed with added oleic acid

Structure (SMILES)	cell number change [%]	AC50 [1]	AC50 [2]
Cc1c(Cl)cccc1NC(=O)CCNC(=O)N1CC(=O)Nc2ccccc21	-5.2		
COc1ccc(OC)c(-c2nnc(SCC(=O)N3CCOCC3)o2)c1	8.97	6.51 µM [rising, full curve, poor fit]	
COc1ccccc1-n1nnnc1SCC(=O)Nc1cc(C)on1	-10.2	3.26 µM [rising, single point]	
O=c1c2ccccc2nc(-c2ccc(Cl)cc2Cl)n1O	-45.8	6.51 µM [falling, partial curve]	6.51 µM [falling, partial curve, poor fit]
COC(=O)C1CCN(C(=O)COC(=O)c2cc(-c3ccccc3)nc3ccc(OC)cc23)CC1	-19.8	0.092 µM [rising, partial curve, poor fit]	
Cc1cc(CNC(=O)c2cc(-c3ccccc3)nc3ccccc23)nn1C	3.38		
CC(C)(O)C#CC#CCN1CCOCC1	2	0.259 µM [falling, full curve, poor fit]	
COc1cccc(C2(c3cccc(OC)c3)CC2C(=O)Nc2cccc3ccccc23)c1 (centres undefined)	-49.1	2.59 µM [falling, full curve]	7.31 µM [falling, partial curve]
CC(C)C(NC(=O)C12CC3CC(CC(C3)C1)C2)C(=O)N/N=C/C1=C(N2CCOCC2)C(=C\c2ccc([N+](=O)[O-])cc2)/CC1 (centres undefined)	7.14		3.66 µM [rising, single point]
C/C(=N/OCc1ccc(Br)cc1)c1ccccn1	-21.1		
CCCNC(=O)C(Cc1ccc(OC)cc1)NC(=O)c1ccc(C#N)cc1 (centres undefined)	-3.05	0.164 µM [rising, partial curve]	
O=C1N=c2ccccc2=C1c1sc(=S)n(NC(=O)c2ccccc2)c1O	-19.3		0.00517 µM [falling, full curve, poor fit]
Cc1ccc(-c2nnc(N3CCN(c4ccccn4)CC3)c3ccccc23)cc1		1.84 µM [rising, partial curve]	2.06 µM [rising, partial curve]
O=[N+]([O-])c1cccc(-c2nnc3ccccn23)c1	-46.1		36.6 µM [falling, partial curve, poor fit]
CNCC(O)COc1ccccc1 (centres undefined)		6.51 µM [falling, single point]	0.731 µM [falling, full curve]
C=CCOc1c2ccc(C(=O)NCc3ccc(OC)cc3)cc2nn1C	-36.4		20.6 µM [falling, single point]
Cc1ccn(CC(=O)N2CCCC(N3CCN(c4ccccc4F)CC3)C2)n1 (centres undefined)	24.9		
O=C1c2ccccc2C(=O)N1/N=C/c1ccc(O)c(O)c1O	-11.3	6.51 µM [falling, single point]	
CCOC(=O)C1CCCN(C(=O)CCNS(=O)(=O)c2ccc(Br)cc2)C1 (centres undefined)	14.4	2.59 µM [falling, partial curve, poor fit]	
Cc1ccc(C)c(N2CCN(C(=O)c3ccc(N4CCCC4=O)cc3)CC2)c1	21	6.51 µM [rising, single point]	

Fetched by structure from above:
Structure (SMILES)	cell number change [%]	AC50 [1]	AC50 [2]
CCOC(=O)C1CCCN(C(=O)CCNS(=O)(=O)c2ccc(Br)cc2)C1 (centres undefined)	14.4	2.59 µM [falling, partial curve, poor fit]	
COC(=O)C1CCN(C(=O)COC(=O)c2cc(-c3ccccc3)nc3ccc(OC)cc23)CC1	-19.8	0.092 µM [rising, partial curve, poor fit]	
O=[N+]([O-])c1cccc(-c2nnc3ccccn23)c1	-46.1		36.6 µM [falling, partial curve, poor fit]
Cc1cc(CNC(=O)c2cc(-c3ccccc3)nc3ccccc23)nn1C	3.38		

(next part)

Structure (SMILES)	cell number change [%]	AC50 [1]	AC50 [2]
O=C1c2ccccc2C(=O)N1c1ccc(Br)c2cccnc12	61.1		23.1 µM [rising, single point]
CC(=O)Nc1ccc(Nc2nc(C(F)(F)F)nc3c2nnn3Cc2ccccc2Cl)cc1	-41.7	1.84 µM [rising, partial curve]	10.3 µM [falling, partial curve]
CCOc1cc(/C=N/NC(=O)Cc2ccc(C(F)(F)F)cc2[N+](=O)[O-])ccc1O	6.86		
Cc1ccc2c(c1)c1c3n2CCCN(Cc2ccccc2)C3CCC1 (centres undefined)	-19.3	25.9 µM [falling, single point]	
CCOC(=O)NC(=O)c1cn(C(CC)CO)c(=O)[nH]c1=O (centres undefined)	12.1	29.1 µM [falling, single point]	
CN(Cc1nc2ccccc2c(=O)[nH]1)C(=O)c1cccc(S(=O)(=O)N2CCCCCC2)c1	4.95	6.51 µM [rising, single point]	
CN(C)C(=O)COc1ccc(S(=O)(=O)c2ccc(OCC(=O)N(C)C)cc2)cc1	23.4		
O=C(c1cccs1)n1nc(NCc2ccccc2)nc1NCc1ccccc1	-2.73	0.82 µM [rising, full curve]	6.51 µM [rising, single point]
S=C(NCCCN1CCOCC1)Nc1ccc(-c2nc3ccccc3[nH]2)cc1	83.5		5.17 µM [rising, full curve, poor fit]
CCN(CC)C(=O)CSc1nnc(-c2ccc(S(=O)(=O)N3CCOCC3)cc2)n1C	-12.8		
CC(Sc1nc2ccccc2[nH]1)C(=O)Nc1ccc2c(c1)OCCO2 (centres undefined)	-29.8		3.26 µM [falling, full curve, poor fit]
CN(Cc1cccc(F)c1)C(=O)c1ccc(S(=O)(=O)N2CCOCC2)cc1	-3.88	10.3 µM [falling, single point]	
Cc1ccc(-n2ccc(=O)c(C(=O)O)n2)cc1	3.83		
COc1ccc(C(C(=O)NC2CCCC2)N(C(=O)c2ccco2)c2ccccc2OC)cc1 (centres undefined)	14.1	29.1 µM [falling, single point]	
CC(=O)C1=C(C)NC(=O)CC1c1ccc(F)cc1 (centres undefined)	-44.1		0.651 µM [falling, full curve, poor fit]
CS(=O)(=O)N1CCN(c2ccccc2NC(=O)c2ccc3c(c2)OCCO3)CC1	-12.7	7.31 µM [falling, partial curve]	
Nc1cc(C(=O)OCC(=O)NCCNC(=O)COC(=O)c2ccc(Cl)c(N)c2)ccc1Cl	5.26	5.62 µM [rising, single point]	
CC(=O)NCCNC(=O)c1cccc(NS(=O)(=O)c2ccc3c(c2)OCCO3)c1	3.61		
COc1cc(/C=C(\C#N)C(=O)Nc2cccc3ncccc23)cc(OC)c1OC	-11.6	16.4 µM [falling, single point]	
CCSCCOC(=O)C1=C(C)NC(=O)NC1c1ccccc1 (centres undefined)	-8.57	0.0259 µM [falling, full curve, poor fit]	0.731 µM [falling, full curve]

Structure (SMILES)	cell number change [%]	AC50 [1]	AC50 [2]
CC1(C)CC(=O)C=C(Nc2cccc(O)c2)C1	-10.9	4.61 µM [falling, partial curve, poor fit]	
Cn1cc([N+](=O)[O-])c(C(=O)Nc2ccc(C3CCCCC3)cc2)n1	-29.4	18.4 µM [falling, single point]	
CCOC(=O)Cc1c[nH]c2ccccc12	16.7	29.1 µM [rising, single point]	
CCCNC(=O)c1ccc2nc(-c3ccccc3)c(-c3ccccc3)nc2c1		6.51 µM [rising, single point]	6.51 µM [rising, single point]
Cc1cc(C)n(C(=O)c2ccncc2)n1	5.72	0.58 µM [rising, single point]	
Cc1ccc(Sc2ncnc(N)c2[N+](=O)[O-])cc1	-7.64	3.26 µM [falling, partial curve, poor fit]	
CC(C)C[C@H](NC(=O)c1nc[nH]c1C(=O)NCCCCCNC(=O)OC(C)(C)C)C(=O)OCc1ccccc1	-31.8	29.1 µM [falling, single point]	
CCOC(=O)c1cccc(NC(=O)C2CCN(c3ncnc4c3nc3n4CCCCC3)CC2)c1	-2.39	29.1 µM [falling, single point]	
Cc1cc(OCC(=O)Nc2cc(-c3nn4c(C)nnc4s3)ccc2C)ccc1Cl		0.082 µM [rising, full curve, poor fit]	
O=C1c2ccccc2CCc2ccc(Br)cc21	-7.57	4.11 µM [falling, single point]	
CC(OC(=O)CN1C(=O)COc2ccccc21)C(=O)NCc1ccc(F)cc1 (centres undefined)	-3.85		
CCCc1nnc(NC(=O)CCS(=O)(=O)c2ccccc2)s1		0.651 µM [falling, full curve]	
CCOc1cc(/C=N/NC(=O)CSc2nnc(C)s2)ccc1OCc1ccccc1Cl	-23.1	29.1 µM [falling, single point]	
Cc1ccc(-c2nn(-c3ccccc3)cc2/C=C(\C#N)C(=O)NCc2ccccc2)cc1	-37.7		29.1 µM [falling, single point]
Cc1ccc(C)c(S(=O)(=O)N2CCN(CC(=O)Nc3ccc4c(c3)OCCO4)CC2)c1	23	29.1 µM [rising, single point]	1.84 µM [falling, partial curve]
O=C(CCN1CCOCC1)c1ccc2c(c1)OCCO2	-72	16.4 µM [falling, single point]	18.4 µM [falling, single point]
CC(C)Cn1c2nc3ccccc3nc2c2c(=O)n(CCN3CCOCC3)cnc21	23.7	0.206 µM [rising, full curve, poor fit]	
COc1ccccc1Nc1nc(-c2sc(NC(=O)C(C)(C)C)nc2C)cs1		2.31 µM [falling, partial curve]	2.06 µM [falling, partial curve]
NNC(=O)c1oc2nc(-c3ccco3)cc(-c3ccco3)c2c1N	46.1	23.1 µM [falling, single point]	29.1 µM [rising, single point]
